# Literature values in patent US20030096014A1, “Solid pharmaceutical compositions for oral administration comprising itraconazole” (priority 2001, published 2003).
smiles,measurement,value
"CCC(C)n1ncn(-c2ccc(N3CCN(c4ccc(OCC5COC(Cn6cncn6)(c6ccc(Cl)cc6Cl)O5)cc4)CC3)cc2)c1=O (stereo not shown) [itraconazole, Itraconazole]",solubility in water,only very sparingly soluble
